Laboratory results from paper PMC10625211.

Protein sequences, listed by entry. Tags and fused reporters are not part of them. Lines headed by an entry give the natural chain unless they say otherwise; changes in a name come on top.
UniProt E2QCX5: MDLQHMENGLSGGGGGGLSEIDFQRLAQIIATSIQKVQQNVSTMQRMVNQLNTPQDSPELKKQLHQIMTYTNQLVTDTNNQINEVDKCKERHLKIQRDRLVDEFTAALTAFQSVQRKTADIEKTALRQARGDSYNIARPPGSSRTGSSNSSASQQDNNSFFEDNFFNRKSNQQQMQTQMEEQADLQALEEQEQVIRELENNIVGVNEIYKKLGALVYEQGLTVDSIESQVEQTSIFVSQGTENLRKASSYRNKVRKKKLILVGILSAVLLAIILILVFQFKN

Legend:
Assay in all cases: co-IP; HEK 293T cells co-transfected with Flag-tagged APOL1 variant (100 ng) and HA-tagged SNARE (900 ng), harvested 16 h after transfection; lysis in 50 mM Tris-HCl pH 7.4, 150 mM NaCl, 2 mM MgCl2, 0.5% Nonidet P-40; immunoprecipitation with anti-Flag M2 affinity gel, immunoblotting with Flag or HA antibody
[1] = target: T1, Flag-tagged APOL1-G1 (human) (UniProt O14791)
T1 sequence: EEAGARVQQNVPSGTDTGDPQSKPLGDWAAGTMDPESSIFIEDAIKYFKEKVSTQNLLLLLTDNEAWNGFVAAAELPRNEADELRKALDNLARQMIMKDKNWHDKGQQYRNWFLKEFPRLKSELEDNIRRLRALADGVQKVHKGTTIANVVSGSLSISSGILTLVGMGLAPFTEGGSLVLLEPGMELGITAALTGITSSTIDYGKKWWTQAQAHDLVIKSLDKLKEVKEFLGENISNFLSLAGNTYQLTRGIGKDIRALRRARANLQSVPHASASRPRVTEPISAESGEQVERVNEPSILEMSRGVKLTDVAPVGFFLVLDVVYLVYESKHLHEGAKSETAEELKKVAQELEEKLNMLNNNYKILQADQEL

[2] = target: T2, Flag-tagged APOL1-G2 (human) (UniProt O14791)
T2 sequence: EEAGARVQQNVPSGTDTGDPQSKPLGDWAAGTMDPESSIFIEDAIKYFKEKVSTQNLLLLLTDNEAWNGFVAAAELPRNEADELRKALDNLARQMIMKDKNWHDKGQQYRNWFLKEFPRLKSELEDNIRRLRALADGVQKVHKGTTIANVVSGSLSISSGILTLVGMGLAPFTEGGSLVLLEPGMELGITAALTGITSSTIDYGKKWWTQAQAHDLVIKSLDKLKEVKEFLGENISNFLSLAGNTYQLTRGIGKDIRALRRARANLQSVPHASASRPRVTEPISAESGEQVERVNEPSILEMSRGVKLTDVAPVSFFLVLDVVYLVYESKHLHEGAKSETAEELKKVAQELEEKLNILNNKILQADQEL

[3] = target: T3, Flag-tagged APOL1-G0 (human) (UniProt O14791)
T3 sequence: T1 sequence with G315S, M357I

Measured: binding

HA-tagged dSyx7 (from UniProt E2QCX5)
binds: [1] | [2] | [3]

Residue numbers refer to the chain shown, from its start. These are yes or no findings as the source states them, for the method shown. In cells and extracts the contact can be indirect. A result given as binding can be weak or reduced; the word gives no strength. Where a sequence is shown, tags or fusion partners need not be part of it.
